Measurements as given in ChEMBL document CHEMBL4837260, “Structure-Guided Design of a Small-Molecule Activator of Sirtuin-3 that Modulates Autophagy in Triple Negative Breast Cancer” (J Med Chem, 2021).

Key:
Assay type in all cases: functional, cell-based
MCF7 = test: Antiproliferative activity against human MCF7 cells measured after 24 hrs by MTT assay; details: MCF7, 24 h
HL-60 = test: Antiproliferative activity against human HL-60 cells measured after 24 hrs by MTT assay; details: HL-60, 24 h
U-937 = test: Antiproliferative activity against human U-937 cells measured after 24 hrs by MTT assay; details: U-937, 24 h

## CCCCc1oc2ccccc2c1C(=O)c1cc(I)c(OCCN(CC)CC)c(I)c1 [AMIODARONE]
MCF7
  IC50: > 50 µM
HL-60
  IC50: 5.27 µM
U-937
  IC50: 9.31 µM
